# Values of other authors in US11786537B2 (priority 2022, dated 2023).
# At least one structure is not confirmed: it was looked up by name or label, or the drawing left a doubt.
# Target: RdRp (PDB ID: 6NUR) (Severe acute respiratory syndrome coronavirus, UniProt P0C6X7)
# Conditions: cited from earlier work
smiles,measurement,value
CCC(CC)COC(=O)[C@H](C)N[P@](=O)(OC[C@H]1O[C@@](C#N)(c2ccc3c(N)ncnn23)[C@H](O)[C@@H]1O)Oc1ccccc1 [Remdesivir],Binding energy (reference docking score),-4.21 kcal/mol
